PubChem BioAssay AID652272 | Drosophila RNAi Screening Center – 2013

Aim: 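Genome-wide knock-down search for components of Hedgehog signalling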 (primary screen)
Cells: Drosophila clone 8 (Cl8) cells
Reagent: long dsRNA against Drosophila genes
Measured: 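Plate reader light from a firefly reporter under a ptc promoter fragment that responds to Hedgehog, with Renilla light as transfection reference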
Reading the numbers: firefly Hh reporter signal: higher = more ptc reporter light; Renilla reference signal: higher = more Renilla control light
Rule for the call: 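Called a hit if the two-replicate mean z-score lies below -2 or above +3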
Meaning of the calls: active = hit: reporter lowered or raised; inactive = not a hit
The screen tested about 21,000 reagents; shown is an unselected part of those with a known target gene and a result. In the full data, 503 (2.4%) are marked active. 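Raw plate light values, not normalised; calls rest on replicate z-scores that were not deposited; hits include reporter decreases as well as increases.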 A number with no mark means an inactive call. Not given: the amount of reagent, the time to read-out.

| target | DRSC id | firefly Hh reporter signal, replicate 1 | firefly Hh reporter signal, replicate 2 | firefly Hh reporter signal, replicate 3 | Renilla reference signal, replicate 1 | Renilla reference signal, replicate 2 |
| --- | --- | --- | --- | --- | --- | --- |
| CG2889 (GeneID 31977) | DRSC18236 | 65447 | 1.52e5 | – | 1840 | 5952 |
| Hira (GeneID 31680) | DRSC18672 | 86999 | 3.14e5 | – | 2249 | 12697 |
| angel (GeneID 37748) | DRSC04670 | 2.03e5 | 1.27e5 | – | 7197 | 5376 |
| CG13058 (GeneID 39806) | DRSC09941 | 1.61e5 | – | – | 2493 | 5144 |
| CG31327 (GeneID 318684) | DRSC13019 | 35847 | 1.62e5 | – | 7376 | 3184 |
| Cypl (GeneID 38069) | DRSC08362 | 67321 | 39735 | – | 1908 | 3174 |
| CG9855 (GeneID 40556) | DRSC12344 | 1.68e5 | 6.93e5 | 1.01e5 | 6332 | 43706 |
| CG12861 (GeneID 36628) | DRSC06201 | 1.51e5 | 74087 | – | 3802 | 5963 |
| CG10383 (GeneID 35123) | DRSC02050 | 96892 | 83467 | – | 4373 | 4055 |
| Acsf3 (GeneID 31668) | DRSC18146 | 84172 | 2.67e5 | – | 3117 | 9725 |
| Mur89F (GeneID 42080) | DRSC15544 | 75408 | 64433 | – | 1975 | 4817 |
| CG34231 (GeneID 5740811) | DRSC05323 | 1.30e5 | 2.03e5 | – | 3747 | 8680 |
| Nprl3 (GeneID 39550) | DRSC11044 | 90373 | 39034 | – | 2887 | 1465 |

Next part, starting with the last 4 of the part before.
| target | DRSC id | firefly Hh reporter signal, replicate 1 | firefly Hh reporter signal, replicate 2 | firefly Hh reporter signal, replicate 3 | Renilla reference signal, replicate 1 | Renilla reference signal, replicate 2 |
| --- | --- | --- | --- | --- | --- | --- |
| Acsf3 (GeneID 31668) | DRSC18146 | 84172 | 2.67e5 | – | 3117 | 9725 |
| Mur89F (GeneID 42080) | DRSC15544 | 75408 | 64433 | – | 1975 | 4817 |
| CG34231 (GeneID 5740811) | DRSC05323 | 1.30e5 | 2.03e5 | – | 3747 | 8680 |
| Nprl3 (GeneID 39550) | DRSC11044 | 90373 | 39034 | – | 2887 | 1465 |
| CG46441 (GeneID 42423) | DRSC15561 | 1.70e5 | 1.27e5 | – | 6749 | 5393 |
| Pits (GeneID 32205) | DRSC19385 | 1.45e5 | 2.75e5 | – | 5255 | 11682 |
| Pits (GeneID 32205) | DRSC19812 | 1.71e5 | 7.84e5 | 3.95e5 | 5830 | 4498 |
| CG42818 (GeneID 10178877) | DRSC01963 | 1.27e5 | 1.08e5 | – | 3219 | 7910 |
| CG6028 (GeneID 42589) | DRSC15951 | 1.06e5 | 62011 | – | 4593 | 2698 |
| Not1 (GeneID 5740252) | DRSC06787 | 50456 (active) | 29600 | – | 2513 | 4906 |
| Not1 (GeneID 5740252) | DRSC06794 | 18409 | 18336 | – | 1225 | 1264 |
| CG32198 (GeneID 317909) | DRSC09553 | 1.83e5 | – | – | 3843 | – |
| tst (GeneID 42813) | DRSC14212 | 83778 | 60482 | – | 3186 | 2074 |
| ohgt (GeneID 41230) | DRSC15521 | 72861 | 97024 | – | 2395 | 2807 |
| Aps (GeneID 39226) | DRSC10629 | 76456 | 86981 | 68693 | 5024 | 5623 |
| p (GeneID 41025) | DRSC16560 | 81549 | 1.10e5 | – | 3634 | 3063 |
| CG9044 (GeneID 33825) | DRSC03130 | 1.27e5 | 51328 | – | 4418 | 2480 |
| CG15745 (retired record) (GeneID 32283) | DRSC19711 | 89010 | 2.97e5 | – | 1972 | 9560 |
| CG42748 (GeneID 35442) | DRSC03712 | 56608 | 45379 | – | 1446 | 4471 |
| CG42748 (GeneID 35442) | DRSC03713 | 1.16e5 | 76065 | – | 4816 | 3494 |
| CG42748 (GeneID 35442) | DRSC03734 | 56795 | 57792 | – | 1804 | 4128 |
| hmw (GeneID 42207) | DRSC16277 | 1.11e5 | 1.10e5 | – | 4333 | 4081 |
| CG34202 (GeneID 5740498) | DRSC05907 | 82365 | 1.93e5 | – | 2077 | 8983 |
| GstT3 (GeneID 33047) | DRSC20541 | 73977 | 3.04e5 | – | 1618 | 11865 |
| EndoGI (GeneID 34953) | DRSC01964 | 1.05e5 | 92972 | – | 2726 | 7090 |
| sei (GeneID 37843) | DRSC04713 | 1.13e5 | 35835 | – | 3733 | 1376 |
| Reph (GeneID 47399) | DRSC00634 | 1.42e5 | 1.50e5 | – | 5604 | 6205 |
| CG42729 (GeneID 3885667) | DRSC10236 | 1.52e5 | – | – | 6120 | 4520 |
| Ogdh (GeneID 39899) | DRSC09854 | 1.26e5 | 91068 | – | 4876 | 3987 |
| Ogdh (GeneID 39899) | DRSC09855 | 1.07e5 | – | – | 4746 | 3618 |
